The numbers were not newly measured in US20070104787A1, “Carboxyalkyl cellulose esters for sustained delivery of pharmaceutically active substances” (priority 2005, published 2007), which cites them from elsewhere.

Where two headings read alike, the source gives them in different places.

The conditions of this data set: cited from earlier work.

For `CC(C)Cc1ccc(C(C)C(=O)O)cc1` (centres unmarked) [ibuprofen], the solubility of ibuprofen result runs as follows: (pH 1.2) “highly insoluble”; (pH 6.8) “very soluble”.
